Article PMC7819943, “Rice protein-binding microarrays: a tool to detect cis-acting elements near promoter regions in rice”
This is one part of the list.

What follows are sequences tested against T1, OsSMF1 (Oryza sativa, UniProt Q6ZLB0 1-436) (assay: protein-binding microarray (RPBM); PBS, 2% BSA, 51.3 ng/ul salmon testes DNA, 50 uM zinc acetate, 200 nM TF, 25 C, 1 h; high values mean tight binding). Details: protein: recombinant; tags: N-terminal polyhistidine and DsRed monomer fusion (pET32a); chain copies: 2; label: CyDye5-dUTP incorporated in the synthesized complementary strand; 3' TTTTT single-stranded linker to array surface; dsDNA, one strand shown.
T1 sequence: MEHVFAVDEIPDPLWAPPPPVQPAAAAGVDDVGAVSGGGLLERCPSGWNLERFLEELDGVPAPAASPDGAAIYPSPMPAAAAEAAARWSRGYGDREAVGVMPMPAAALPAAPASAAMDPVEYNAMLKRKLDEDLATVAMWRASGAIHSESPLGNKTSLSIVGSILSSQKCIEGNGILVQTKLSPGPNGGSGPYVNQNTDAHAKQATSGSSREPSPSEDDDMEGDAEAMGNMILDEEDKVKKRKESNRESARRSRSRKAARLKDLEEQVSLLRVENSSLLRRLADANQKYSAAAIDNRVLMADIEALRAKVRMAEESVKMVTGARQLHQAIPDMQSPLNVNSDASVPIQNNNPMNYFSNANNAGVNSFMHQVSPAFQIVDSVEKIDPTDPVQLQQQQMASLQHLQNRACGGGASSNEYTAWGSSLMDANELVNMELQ
How it was run: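 The binding signal for each feature is its fluorescence intensity in arbitrary units. An Axon 4000B scanner was used to read a custom Agilent array that had been made double-stranded with Cy5-dUTP primer extension, blocked with 2% BSA, incubated at 25 °C for 1 h with 200 nM protein in PBS, 2% BSA, salmon testes DNA and 50 µM zinc acetate, and washed. The protein was an N-terminal polyhistidine–DsRed transcription factor fusion from E. coli BL21-CodonPlus, purified on Ni–NTA.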
“TTTTAGGTTGAGCTGTGACATAATATGTAGCCTGTGCATTCGGAGTCACCTAGTGCAG” was tested, and the binding signal was 3860 fluorescence intensity (a.u.).
In the case of “AGGGTAGTGAGAGAGAGGATGACATGTGGGACCTACATGTCGGAGTCACCTAGTGCAG”, the binding signal is reported as 3540 fluorescence intensity (a.u.).
“CTTCTTCTTGTGATGCTTATATATGACTATGTATGTAGTGCGGAGTCACCTAGTGCAG” was tested, and the binding signal was 3940 fluorescence intensity (a.u.).
For “TATGGACACCATCCTTGTCATTGGGTTAGGACTGGCCTTACGGAGTCACCTAGTGCAG”, the binding signal was 3630 fluorescence intensity (a.u.).
In the case of “CGAGTGGCGCAGGCGACGGCGGCGGTTGCTGAGGTGGGCACGGAGTCACCTAGTGCAG”, the binding signal is reported as 5180 fluorescence intensity (a.u.).
For “TAACCCATGGCTAGATATATTAATTAAGTTAAGTGAAACCCGGAGTCACCTAGTGCAG”, the binding signal was 22600 fluorescence intensity (a.u.).
For “ACCGGGTTAGCACCGCCACGTCAGCACCACATCAGCAAAACGGAGTCACCTAGTGCAG”, the binding signal was 20000 fluorescence intensity (a.u.).
With “ATTTGATGCATCTCCTTGCGTGCCAGCGTATACCCTCGTCCGGAGTCACCTAGTGCAG” the binding signal was 4760 fluorescence intensity (a.u.).
“CCATCCCTTTCACTGTCGTCGCGGCCTCCCTGACCGCGCCCGGAGTCACCTAGTGCAG” was tested, and the binding signal was 3190 fluorescence intensity (a.u.).
For “GTAATCTGTAGTTTCTGTACCCAAGTCACCTCCAACCAGGCGGAGTCACCTAGTGCAG”, the binding signal was 3820 fluorescence intensity (a.u.).
In the case of “CAAACTCATCATCCAGAGTCCAGACTCATCTCTACTTCCACGGAGTCACCTAGTGCAG”, the binding signal is reported as 4050 fluorescence intensity (a.u.).
“TGATAATAATTATTTCTTGGTCTTTAAATTAAGGGTGATTCGGAGTCACCTAGTGCAG” was tested, and the binding signal was 14800 fluorescence intensity (a.u.).
“CGCTAGGAGGATGGTTAGCAAACAGTAATTTCGTGTGACACGGAGTCACCTAGTGCAG” was tested, and the binding signal was 3600 fluorescence intensity (a.u.).
In the case of “ATTTGGAGAATCTATGGATGAGGATGAGTCATAATCCAAACGGAGTCACCTAGTGCAG”, the binding signal is reported as 8180 fluorescence intensity (a.u.).
“AAAGCTCTCCACGTCACCACCGCCGCCACGCTCTCGCCTCCGGAGTCACCTAGTGCAG” was tested, and the binding signal was 33500 fluorescence intensity (a.u.).
For “CGAACGGCCGTCTGCCACGTCATTTTCGCCGGCCCTCTGGCGGAGTCACCTAGTGCAG”, the binding signal was 17900 fluorescence intensity (a.u.).
“CAAGAGTTATCAATACATATCGGAATATCGTGACCTATCACGGAGTCACCTAGTGCAG” was tested, and the binding signal was 29200 fluorescence intensity (a.u.).
For “TGTCAAAAGTTGCAGGGGCAATGGCGTGGAGGGAGGGTACCGGAGTCACCTAGTGCAG”, the binding signal was 3720 fluorescence intensity (a.u.).
“GCTCGTGGAGCACGGATACGCCGTCACCGTCGCACTCATCCGGAGTCACCTAGTGCAG” was tested, and the binding signal was 4360 fluorescence intensity (a.u.).
In the case of “TTCTGTTTAGCACCGTATGCATTATGGCATTTAGTTCTTGCGGAGTCACCTAGTGCAG”, the binding signal is reported as 3400 fluorescence intensity (a.u.).
“GGAGATCAGCGCCGGCGGCCTCGTCAGCGCCCTCCTCGGTCGGAGTCACCTAGTGCAG” was tested, and the binding signal was 7560 fluorescence intensity (a.u.).
With “ACTCCGGTCCAGGAAAATTATTCCTATAGTAATGTAATAACGGAGTCACCTAGTGCAG” the binding signal was 42900 fluorescence intensity (a.u.).
With “TATGTATGATCTCTTCCTGTAACATTTTCATCATCTAACCCGGAGTCACCTAGTGCAG” the binding signal was 3480 fluorescence intensity (a.u.).
For “TTGTGACAAGTAACTGAGGATCACATCACGATCGGCAACCCGGAGTCACCTAGTGCAG”, the binding signal was 3560 fluorescence intensity (a.u.).
For “CACTGAGTCACTGCCAGCTCAGCAAAAGCCAAAGTGTCAACGGAGTCACCTAGTGCAG”, the binding signal was 11500 fluorescence intensity (a.u.).
“TGGGGAGTAGGAGGCGAGGGTGGCGTCATCGTGGTCGAGGCGGAGTCACCTAGTGCAG” was tested, and the binding signal was 8200 fluorescence intensity (a.u.).
For “ACGAGTGCCACCGCGACCTCGTCCGCTCCGCCTACCTCCCCGGAGTCACCTAGTGCAG”, the binding signal was 8630 fluorescence intensity (a.u.).
In the case of “AGCCTAGCACAGTCATCAGGTAGCCTATAGTGGTGCCTAACGGAGTCACCTAGTGCAG”, the binding signal is reported as 4510 fluorescence intensity (a.u.).
In the case of “CAATATGACGTACGGCCATCCTGGCGTCACCGTGACGACGCGGAGTCACCTAGTGCAG”, the binding signal is reported as 6600 fluorescence intensity (a.u.).
In the case of “TAAATGCATTTGTTTCAGCCTCATATGTCAGCACTCCCATCGGAGTCACCTAGTGCAG”, the binding signal is reported as 3370 fluorescence intensity (a.u.).
With “ATTCAAGTATCTAGTTTTGAACGTGTTACCATAATCTGGCCGGAGTCACCTAGTGCAG” the binding signal was 11800 fluorescence intensity (a.u.).
“CATCCTCTTCTCCTTCTCCTTGTTGGAAATGCTTTCCTTTCGGAGTCACCTAGTGCAG” was tested, and the binding signal was 15500 fluorescence intensity (a.u.).
With “CCGTGCTACAGCTGGCTACAAATATGTAGCCCTATGCTCTCGGAGTCACCTAGTGCAG” the binding signal was 18300 fluorescence intensity (a.u.).
For “AAAATACCATTACTATTTAGCATATCGGCTACGTGTTACTCGGAGTCACCTAGTGCAG”, the binding signal was 3660 fluorescence intensity (a.u.).
For “ACGCCATCGCGTCGCGTCATTCTTCCAATCGAGAACTCTTCGGAGTCACCTAGTGCAG”, the binding signal was 4720 fluorescence intensity (a.u.).
“AATAAAGAAATTCTTGGACTACGTGGTACTCCCTCCGTCCCGGAGTCACCTAGTGCAG” was tested, and the binding signal was 6040 fluorescence intensity (a.u.).
In the case of “ACTGAAGTAATGCTTTATACACGGTTACACGACACGTCATCGGAGTCACCTAGTGCAG”, the binding signal is reported as 16100 fluorescence intensity (a.u.).
“CTACATACACCCGTCCGAGTCATACGCGAGACCGCCCTCGCGGAGTCACCTAGTGCAG” was tested, and the binding signal was 6800 fluorescence intensity (a.u.).
“TCGAACGCTCCACATTGAGCCACGTACACCGCCTCCTTCTCGGAGTCACCTAGTGCAG” was tested, and the binding signal was 3880 fluorescence intensity (a.u.).
In the case of “TGAAACCAGATCACTTTACATCCCTACGTGGCCGCCTACGCGGAGTCACCTAGTGCAG”, the binding signal is reported as 5220 fluorescence intensity (a.u.).
“TGGAACCCACTGCTTTGCCTATAAATATGTAGCTATAGCTCGGAGTCACCTAGTGCAG” was tested, and the binding signal was 4160 fluorescence intensity (a.u.).
“ACGTCATCTGCCTGACGTGTCACCGACACATCCCGGACAGCGGAGTCACCTAGTGCAG” was tested, and the binding signal was 23500 fluorescence intensity (a.u.).
